In PMC10656231:
Results are given in words; binding and its absence hold for the method and conditions named. Binding seen in cells or lysates may run through a third protein. These calls come from enrichment with a bait or labelling near it, and not all partners need be listed.

Sequences of proteins named here, by UniProt entry; tags and fusion partners are left off.
UniProt P12004: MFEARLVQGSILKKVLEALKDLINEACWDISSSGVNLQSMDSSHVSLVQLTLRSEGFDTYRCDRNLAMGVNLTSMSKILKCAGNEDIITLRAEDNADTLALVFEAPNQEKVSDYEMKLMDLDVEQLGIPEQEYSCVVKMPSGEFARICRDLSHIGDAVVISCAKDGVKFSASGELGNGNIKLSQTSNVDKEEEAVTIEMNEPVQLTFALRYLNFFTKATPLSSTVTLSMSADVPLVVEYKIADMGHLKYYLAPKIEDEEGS
UniProt P09874: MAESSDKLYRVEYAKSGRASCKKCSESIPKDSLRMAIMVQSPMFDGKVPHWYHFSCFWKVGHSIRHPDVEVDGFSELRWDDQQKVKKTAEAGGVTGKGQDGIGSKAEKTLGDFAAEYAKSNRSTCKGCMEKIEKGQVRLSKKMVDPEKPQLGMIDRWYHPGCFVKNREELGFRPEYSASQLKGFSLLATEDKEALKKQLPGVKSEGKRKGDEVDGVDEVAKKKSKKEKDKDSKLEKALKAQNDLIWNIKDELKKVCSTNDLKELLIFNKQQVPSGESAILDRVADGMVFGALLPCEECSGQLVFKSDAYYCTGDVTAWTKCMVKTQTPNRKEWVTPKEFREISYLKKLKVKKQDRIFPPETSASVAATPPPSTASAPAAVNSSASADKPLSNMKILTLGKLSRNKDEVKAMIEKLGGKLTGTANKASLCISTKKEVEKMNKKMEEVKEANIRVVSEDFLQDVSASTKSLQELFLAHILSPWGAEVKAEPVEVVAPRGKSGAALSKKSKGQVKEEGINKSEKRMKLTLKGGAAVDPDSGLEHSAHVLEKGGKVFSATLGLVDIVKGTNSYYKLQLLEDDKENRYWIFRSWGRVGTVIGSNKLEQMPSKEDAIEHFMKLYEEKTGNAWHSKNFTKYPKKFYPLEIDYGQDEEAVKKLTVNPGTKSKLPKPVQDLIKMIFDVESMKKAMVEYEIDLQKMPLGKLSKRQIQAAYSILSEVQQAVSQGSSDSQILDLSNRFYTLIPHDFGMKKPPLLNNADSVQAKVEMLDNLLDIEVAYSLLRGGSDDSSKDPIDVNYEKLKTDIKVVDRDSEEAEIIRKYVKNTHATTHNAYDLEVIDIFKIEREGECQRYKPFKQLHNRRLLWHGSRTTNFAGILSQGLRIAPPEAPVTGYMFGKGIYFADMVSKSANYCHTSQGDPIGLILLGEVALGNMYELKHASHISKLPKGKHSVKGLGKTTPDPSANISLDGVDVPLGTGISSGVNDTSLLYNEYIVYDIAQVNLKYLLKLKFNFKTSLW
UniProt P40938: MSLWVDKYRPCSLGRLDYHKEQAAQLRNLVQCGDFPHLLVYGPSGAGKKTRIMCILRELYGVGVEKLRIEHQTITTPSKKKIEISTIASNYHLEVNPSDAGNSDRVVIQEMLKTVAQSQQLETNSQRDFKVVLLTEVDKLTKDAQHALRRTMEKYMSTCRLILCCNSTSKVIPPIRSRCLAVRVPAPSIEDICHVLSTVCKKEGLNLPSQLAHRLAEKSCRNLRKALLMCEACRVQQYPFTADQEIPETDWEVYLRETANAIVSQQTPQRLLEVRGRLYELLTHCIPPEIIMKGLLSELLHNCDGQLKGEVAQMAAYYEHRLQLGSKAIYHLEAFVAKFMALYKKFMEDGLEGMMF
UniProt Q96QE3: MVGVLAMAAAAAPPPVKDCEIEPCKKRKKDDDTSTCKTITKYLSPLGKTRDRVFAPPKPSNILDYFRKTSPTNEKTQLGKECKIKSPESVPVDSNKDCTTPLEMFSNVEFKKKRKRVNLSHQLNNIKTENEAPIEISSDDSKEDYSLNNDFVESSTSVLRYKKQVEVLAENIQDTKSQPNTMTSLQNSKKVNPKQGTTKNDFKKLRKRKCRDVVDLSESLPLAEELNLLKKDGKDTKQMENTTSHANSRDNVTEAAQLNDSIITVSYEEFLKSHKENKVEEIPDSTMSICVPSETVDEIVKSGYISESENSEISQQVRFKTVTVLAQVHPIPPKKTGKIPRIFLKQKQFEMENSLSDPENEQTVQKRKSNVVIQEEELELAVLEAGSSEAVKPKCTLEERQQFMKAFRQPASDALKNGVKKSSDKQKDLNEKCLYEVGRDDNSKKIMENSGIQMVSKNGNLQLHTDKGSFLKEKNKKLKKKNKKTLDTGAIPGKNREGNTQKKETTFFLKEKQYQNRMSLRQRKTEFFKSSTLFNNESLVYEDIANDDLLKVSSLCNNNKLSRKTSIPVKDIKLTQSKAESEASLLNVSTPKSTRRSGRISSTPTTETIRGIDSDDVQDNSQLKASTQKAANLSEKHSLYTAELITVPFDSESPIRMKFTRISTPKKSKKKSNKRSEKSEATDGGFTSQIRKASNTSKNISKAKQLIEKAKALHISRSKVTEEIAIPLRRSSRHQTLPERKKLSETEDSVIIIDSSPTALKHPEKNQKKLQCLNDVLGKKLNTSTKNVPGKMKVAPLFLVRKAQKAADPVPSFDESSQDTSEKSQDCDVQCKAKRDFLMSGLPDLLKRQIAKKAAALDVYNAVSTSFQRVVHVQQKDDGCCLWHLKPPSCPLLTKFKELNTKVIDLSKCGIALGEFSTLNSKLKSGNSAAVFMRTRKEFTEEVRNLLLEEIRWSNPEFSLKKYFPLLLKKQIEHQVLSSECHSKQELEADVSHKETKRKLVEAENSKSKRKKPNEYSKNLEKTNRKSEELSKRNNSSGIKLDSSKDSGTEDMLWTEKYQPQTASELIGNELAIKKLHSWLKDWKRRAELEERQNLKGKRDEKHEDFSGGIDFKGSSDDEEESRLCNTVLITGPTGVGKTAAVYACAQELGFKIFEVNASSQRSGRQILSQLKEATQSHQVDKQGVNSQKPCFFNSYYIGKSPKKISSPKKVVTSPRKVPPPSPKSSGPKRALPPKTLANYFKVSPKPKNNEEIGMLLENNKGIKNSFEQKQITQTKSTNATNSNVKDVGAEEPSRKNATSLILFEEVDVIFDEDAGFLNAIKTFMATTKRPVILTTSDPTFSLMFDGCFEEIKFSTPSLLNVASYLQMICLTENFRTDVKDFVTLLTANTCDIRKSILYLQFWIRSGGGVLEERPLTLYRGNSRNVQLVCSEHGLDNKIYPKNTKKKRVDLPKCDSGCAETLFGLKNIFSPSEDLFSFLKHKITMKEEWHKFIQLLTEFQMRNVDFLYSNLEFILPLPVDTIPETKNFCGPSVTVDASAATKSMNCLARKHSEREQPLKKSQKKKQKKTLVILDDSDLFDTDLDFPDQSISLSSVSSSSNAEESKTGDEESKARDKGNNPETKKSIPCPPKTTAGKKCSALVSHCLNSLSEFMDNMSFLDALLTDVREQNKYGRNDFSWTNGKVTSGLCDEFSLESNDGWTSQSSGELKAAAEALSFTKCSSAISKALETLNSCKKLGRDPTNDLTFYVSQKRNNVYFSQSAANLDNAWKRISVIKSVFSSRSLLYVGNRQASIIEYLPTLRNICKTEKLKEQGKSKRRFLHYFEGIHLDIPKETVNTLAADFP
UniProt P35249: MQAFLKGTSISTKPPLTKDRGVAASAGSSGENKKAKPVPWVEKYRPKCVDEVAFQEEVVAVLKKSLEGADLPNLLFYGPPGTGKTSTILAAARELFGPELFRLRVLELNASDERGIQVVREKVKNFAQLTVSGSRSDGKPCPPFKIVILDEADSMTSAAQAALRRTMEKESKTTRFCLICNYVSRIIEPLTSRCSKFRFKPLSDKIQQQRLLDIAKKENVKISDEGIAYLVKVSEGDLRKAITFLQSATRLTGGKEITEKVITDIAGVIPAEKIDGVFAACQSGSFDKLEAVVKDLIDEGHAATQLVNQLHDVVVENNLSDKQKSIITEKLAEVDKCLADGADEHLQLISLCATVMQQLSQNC

The substances below were run against T1, HORMAD1 (human (endogenous in A549 and H1395)) (UniProt Q86X24) (assay: affinity purification with mass spectrometry; endogenous HORMAD1 immunoprecipitated from A549 and H1395 lysates (nondenaturing lysis buffer: 50 mM Hepes pH 7.4, 150 mM NaCl, 1.0% Triton X-100, 0.5% sodium deoxycholate), Protein A/G agarose, overnight at 4 °C; SDS-PAGE, in-gel digestion, nano-HPLC …).
T1 sequence: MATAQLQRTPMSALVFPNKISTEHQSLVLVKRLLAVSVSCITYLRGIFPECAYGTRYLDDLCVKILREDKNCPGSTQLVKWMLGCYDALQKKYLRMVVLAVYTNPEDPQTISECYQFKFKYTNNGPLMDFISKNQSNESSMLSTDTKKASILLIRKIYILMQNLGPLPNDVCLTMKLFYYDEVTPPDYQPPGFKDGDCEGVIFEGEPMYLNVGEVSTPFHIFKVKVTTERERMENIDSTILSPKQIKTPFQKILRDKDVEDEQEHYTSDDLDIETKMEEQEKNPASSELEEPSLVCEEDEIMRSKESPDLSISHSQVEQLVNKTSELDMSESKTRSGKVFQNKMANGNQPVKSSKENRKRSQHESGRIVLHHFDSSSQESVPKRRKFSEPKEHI

binding, binds:
PCNA (from UniProt P12004 1-261)
PARP1 (from UniProt P09874 1-1014)
RFC3 (from UniProt P40938 1-356)
ATAD5 (from UniProt Q96QE3 1-1844)
RFC4 (from UniProt P35249 1-363)
